At least one structure is not confirmed: it was looked up by name or label, or the drawing left a doubt.
What was measured:
Escherichia coli = assay: pathogen detection chip (differential drain current) with agar plating, Escherichia coli; format: cell-based
Source text: The drain voltage Vds may cause a drain current Ids to be measured as the electrical signal. In some embodiments, during the course of culturing the biological sample 207A, metabolites and/or the ions of the biological sample 207A generated due to the interaction of which with the interacting agents 207B may cause the front gate voltage Vgs-fg to change and thus the change of drain voltage Vds as well as the measured drain current Ids. By analyzing the electrical signal of the differential drain current ΔIds, several characteristics of the biological sample 207A can be determined within a short time frame and at a relative low sample concentration. In some embodiments, the sensor 20 may occupies a footprint of 5 μm by 5 μm. A bias of +1.8V can be applied to the first gate 209 and a bias of −0.5V can be applied to the second gate 209′ during the measurement of drain current Ids.
Two approaches can be used to measure the differential drain current ΔIds. One approach is to subtract the drain current Ids measured from a control group of the sensor 20 where no biological sample is introduced into the culturing medium 207 from the drain current Ids measured from an experimental group of the sensor 20 where biological sample is introduced into the culturing medium 207 during the course of culturing. The other approach is to subtract the initial drain current Ids (e.g. at t=0) from the drain current Ids measured from an experimental group of the sensor 20 where biological sample is introduced into the culturing medium 207 during the course of culturing. The latter approach can be adopted for real-time pathogen detection, and the former approach can be adopted in a more systematic study where the concentration of biological sample and the pH value of the culturing medium 207 can be recorded simultaneously.
To prepare the culturing medium, 200 μL of non-buffered LB broth having predetermined dosages (including zero dosage) of interacting agent was inoculated with predetermined concentration of Escherichia coli and cultured at a temperature of 37° C. […]

Escherichia coli K12 = assay: electrical signal under different dosages of interacting agent, Escherichia coli K12; format: cell-based

NC[C@H]1O[C@H](O[C@H]2[C@H](O)[C@@H](O[C@H]3O[C@H](CO)[C@@H](O)[C@H](N)[C@H]3O)[C@H](N)C[C@@H]2N)[C@H](O)[C@@H](O)[C@@H]1O [Kanamycin]
blips/sub-blips identified in the electrical signal (Escherichia coli): a blip at the 2nd hour and a sub-blip at the 6th hour
biological sample resistant or sensitive to the interacting agent (Escherichia coli; from electrical signal pattern and CFU): resistant
trend of number of colony-forming unit (CFU) from agar plating (Escherichia coli; over the course of culturing): substantial monotonic increasing
inhibition of growth (Escherichia coli K12; dosage of 50 μg/mL): can effectively inhibit
inhibition of growth (Escherichia coli K12; dosage of 22.5 m/mL): cannot effectively inhibit

Reference: patent US20210302366A1, “Method for Pathogen Detection” (priority 2020, published 2021)
